No constants are given. Whether binding was seen depends on the method and setting. Binding seen in cells or lysates may run through a third protein. A yes stands for co-enrichment or nearness to the bait. Other partners may have been found.
T1: PETO (Cre12.g558900) (Chlamydomonas reinhardtii) (UniProt Q9LLC6)
T1 sequence: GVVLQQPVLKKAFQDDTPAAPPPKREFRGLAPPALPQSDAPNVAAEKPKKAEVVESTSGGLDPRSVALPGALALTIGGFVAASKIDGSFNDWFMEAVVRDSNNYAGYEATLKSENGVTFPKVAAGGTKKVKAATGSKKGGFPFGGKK


Legend:
Assay in all cases: affinity purification with mass spectrometry
[1] = biological target: T1, PETO (Cre12.g558900) (Chlamydomonas reinhardtii)
[2] = biological target: RRM16 (Cre03.g175800) (Chlamydomonas reinhardtii)
[3] = biological target: cyclic electron flow regulator ANR1 (Cre03.g164000) (Chlamydomonas reinhardtii)

Molecule	binding [2]	other results
cyclic electron flow regulator ANR1 (Cre03.g164000) (Chlamydomonas reinhardtii)	–	binding [1]: binds
chloroplast ribosome small subunit component rps4 (protein, UniProt P48270 1-257) MSRYLGPRLRVIRRIGKLRGFTRKKPFRRVFKGFGGFKGKVIPPGQHGLTKLLKTRPYDSSESDYLIRLKVKQRLRFNYGITERQLVNYVRKAKKIKESTGQVLLQFLEMRLDNIVFRLNMAPTIPAARQLISHGHIRVNNKKVNIPSYMCKPKDVISVAMKQRSLQLVNKNLQEYYRRMRFYKKRLEKTLPFILLKIKPLGLTSVTAAVELITKGNVRVNNKSVKTPNYICRPRDTVSLRTKQGIKKVFLKNYLKG	binds	–
chloroplast ribosome small subunit component rps2-1 (protein, UniProt O47027 1-570) MLNKKPPYLILSLIMIKTQKSKQTAVRKLIPGNVISLKITAMGANNVGINEFTFGIPVLVPNAKLGETVQAKVLKILASKKIAIAKLIKVVTKTNATETNNLAALTPGATLDVTITKLGPNSTGIADLGNNYNNVNKLIVKKSAITIGEKVTVLVTRVKNGYAFGVATVSTQRLNQVSTSLTQNSFKGTKFTVVLPKNAKRYLKHLVFKVTTATAQNLSVNGFEQTLFKKGAVGLDTRINNQNGSAGNLTTVPTNTILFVKPNLGAKLGDKVQIQIIKFASIENGTLTYNVAIAKIIKLNPLSTPQKKAFVRSSLRQMLKSGMHYGEKAIKCNARMKNYVWTRKKGTDTKVEARPLIKKGRNLINLLKTRRCLTKALAQLTKYAAKGKTFLFVGTKKAASGLVARAALFSKKAFFVNTRWLGGMLTNWKTILKSISKIRPILKEKQMIIKDILEKRQTIKARLIQKALLLRKKSKLMLKKGRLLIQMLKQNNSNSTSGKQAVRFLFTEKTNLLNTKRKEFVSKGILLLEKRQQLVVKRQELITQSQTLKSKAIQLTNTISQFIKQFNLFT	binds	–
Cytochrome b6f subunit IV (PetD) (protein, UniProt P23230 1-160) MSVTKKPDLSDPVLKAKLAKGMGHNTYGEPAWPNDLLYMFPVVILGTFACVIGLSVLDPAAMGEPANPFATPLEILPEWYFYPVFQILRVVPNKLLGVLLMAAVPAGLITVPFIESINKFQNPYRRPIATILFLLGTLVAVWLGIGSTFPIDISLTLGLF	–	binding [3]: binds

Reference: article doi:10.1101/2022.05.31.493820
